# Library screen at single concentrations

Measurements from “University of Dundee, Small-Polar-MMV Screening Library” (2021), ChEMBL document CHEMBL3988442.

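Growth of Mycobacterium tuberculosis over 4 days (cholesterol / DPPC medium with tyloxapol); the read-out is not stated. Tested at 50 µM. The record gives no direction; compounds that gave an IC50 in retests scored well above the rest, so higher reads as more growth inhibition. Size under these conditions: about 69,000 compounds, about 370 of them at 50% or above in at least one test.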

Each number is a percent effect as filed. The record does not define 0% and 100%; most values in the screen are far below 50% and negative numbers occur (in some assays of this library far below -100). Compounds were drawn at random from those tested, without regard to their results. Two or more numbers in one place are separate tests of the same structure; such repeats can differ widely.

* CCOCCCC(=O)NCCC(=O)N1CCN(c2ccccn2)CC1 : -4.653%
* Cc1nn(C)cc1Cn1c(=O)c(C)nc2ccccc21 : -32.72%
* Cc1cc(CN(C)C2CCCN(Cc3noc(C)n3)C2)no1 (centres unmarked) : -19.57%
* [H][C@@]12CN(S(=O)(=O)c3ccccc3)C[C@]1([H])OCC(=O)N2CC1CCCCC1 : 21.15%
* Cc1nccc(-c2cccc(NCC(=O)N3CCCC(C)C3)c2)n1 (centres unmarked) : -11.1%
* CCN(CC)C(=O)c1nnc2ccc(N3CCOCC3)cc2n1 : -28%
* O=C1CCC2(CCNCC2)CN1Cc1nnc2ccccn12 : -3.31%
* O=C(c1ccncc1F)N1CCCC1c1nc(-c2ccccc2)n[nH]1 (centres unmarked) : -3.912%
* COc1ccc(-c2csc(N)c2C#N)cc1OC : -3.119%
* [H][C@@]12CNCC[C@]1(O)CCN(C(=O)C1(c3ccc(OC)cc3)CCCC1)C2 : -21.96%
* Cc1cc(NCCO)nc2[nH]nc(N)c12 : -2.166%
* CCCc1nc(C(C)(C)NC(=O)C2CC(=O)N(CC(C)C)C2)no1 (centres unmarked) : -13.06%
* O=C(O)C(F)(F)F.[H][C@]12C[C@@H](CN(C)C)N(C(C)=O)[C@@]1([H])CCN(C(=O)c1occc1C)C2 : -1.727%
* c1cncc(COCC2CN(Cc3ccsc3)Cc3ccnn3C2)c1 (centres unmarked) : -2.578% and -11.07%
* O=C(c1cccc(NCCO)c1)N1CCOCC1 : -21.38%
* CN(CC(=O)N1CCCC1)C(=O)Cc1csc(-c2ncccn2)n1 : 9.224%
* O=S(=O)(NCc1ccc(S(=O)(=O)N2CCCC2)s1)c1ccc(Cl)c(Cl)c1 : -7.986%
* CC(O)CN1CCC(CNCc2ccccc2C(F)(F)F)CC1 (centres unmarked) : -23.03%
* [H][C@@]12CCC(=O)N(CCCOC)[C@]1([H])CCN(Cc1ccc3occc3c1)C2 : -7.727%
* COCC(NC(=O)NCc1cccc(Cl)c1)c1ccco1 (centres unmarked) : -9.403%
* CC(NCC1CCN(CCO)CC1)c1ccc(F)c(Cl)c1 (centres unmarked) : 2.006%
* Cc1cc(C(=O)N2CCc3ncc(CN4CCCCC4)n3CC2)no1 : -33.46%
* CCOc1c(CNCCCn2ccnc2)cc(Cl)cc1OC.Cl.Cl : 7.481% and 2.198%
* CC(Cn1cc(Br)cn1)C(=O)Nc1ccc(Br)cn1 (centres unmarked) : 37.36%
* CCS(=O)(=O)Nc1ccc2oc(C)c(C(C)=O)c2c1 : -31.53%
* CC(C)(C)n1ncc2c1NC(=O)CC2c1ccc(C#N)cc1 (centres unmarked) : -11.48%
* CC(C)CCn1nc(CNc2ccc(Br)cc2)nc1O : 10.36%
* CC(=O)C1(c2ccccc2)CCN(C(=O)c2ccn3nnnc3c2)CC1 : -7.733%
* CCOc1cc(CN(C)CCCO)ccc1OC(F)F : 6.547%
* O=C(c1cccnc1)N1CCCC1c1nc(O)cc(-c2ccccn2)n1 (centres unmarked) : 14.58%
* CC(=O)N1CCC(C)(c2cc(C(=O)NCC3CC3)nc(C)n2)CC1 : 7.425% and 1.96%
* CCCn1nccc1C(=O)N1CCN(C2CCc3ccccc3C2)CC1 (centres unmarked) : 6.722% and 6.222%
* CC(C)c1ccc(S(=O)(=O)Cc2nc(N)nc(N(C)C)n2)cc1 : 2.324%
* CC1COCCN1Cc1noc(C(C)(C)C)n1 (centres unmarked) : -10.78%
* CCc1cc(CN(C)C(=O)CN2CC(Cc3ccccc3)CC2=O)on1 (centres unmarked) : 8.851%
* CC(=O)N1CCN(c2nc3c(cnn3C(C)(C)C)c(=O)[nH]2)CC1 : 11.79%
* CCCn1cc(C(=O)NCCC(=O)NC2CCCCC2)c(C)n1 : 4.964% and -7.483%
* O=C(O)C(F)(F)F.O=C(O)C(F)(F)F.[H][C@@]12OCCN(Cc3ccsc3)[C@@]1([H])CC[C@H]2OCc1cccc(C)n1 : 12.87%

Once more, the final 2:

- CCCn1cc(C(=O)NCCC(=O)NC2CCCCC2)c(C)n1 : 4.964% and -7.483%
- O=C(O)C(F)(F)F.O=C(O)C(F)(F)F.[H][C@@]12OCCN(Cc3ccsc3)[C@@]1([H])CC[C@H]2OCc1cccc(C)n1 : 12.87%